Measurements from “University of Dundee, Small-Polar-MMV Screening Library” (2021), ChEMBL document CHEMBL3988442.

Mtb glucose medium: 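Whole-cell growth test on Mycobacterium tuberculosis, read after 3 days in glucose-containing 7H9 medium; the read-out is not stated. Compounds at 50 µM. Direction is inferred from retests: higher values go with more growth inhibition. About 69,000 compounds were tested under these conditions; 1.1% (about 760) showed 50% or more at least once.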
Mtb cholesterol medium: 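Whole-cell growth test on Mycobacterium tuberculosis, read after 4 days in a medium based on cholesterol and the lipid DPPC; the read-out is not stated. Tested at 50 µM. The record gives no direction; compounds that gave an IC50 in retests scored well above the rest, so higher reads as more growth inhibition. Size under these conditions: about 69,000 compounds, about 370 of them at 50% or above in at least one test.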

Results are given as percent effect. How 0% and 100% were set is not recorded. Most values in the screen are low, and negative values occur. This is an unselected part of the compounds tested. Two or more numbers in one place are separate tests of the same structure; such repeats can differ widely.

SMILES | Mtb glucose medium | Mtb cholesterol medium
CN1CCN(C(=O)C2CCN(c3cccnn3)C2)CC1 (stereo not given) | -12.48 | -5.624
Cc1cc(C)n(CC2CN(CCc3ccncc3)CCO2)n1 (stereo not given) | 26.19 | -3.929 & -2.451
CC1c2ncc(COCC3CCOCC3)n2CCN1C(=O)c1ccoc1 (stereo not given) | -1.81 & -38.58 | -3.218
Br.O=C(CN(C1=NCCCCC1)c1ccc(Cl)cc1)c1ccccc1 | 85.68 | 76.74
Cc1nc(C)n(CC2CCCN2CC(=O)NCc2ccco2)n1 (stereo not given) | -3.708 & -8.522 | 10.88
CCn1ncnc1CN1CCC(CNC(=O)c2ccccc2C#N)C1 (stereo not given) | 10.99 | -3.073
CCCn1cc(-c2ccnc(NC3CCc4ccccc43)n2)c(C)n1 (stereo not given) | 34.53 | 6.203
O=C(CSCc1ccncc1)N(Cc1ccsc1)C1CC1 | 16.94 | 8.867
Cn1ncc(C(=O)O)c1C(=O)Nc1nc2ccc(Br)cc2s1 | -10.82 | -19.42
CCC(=O)N1CCCC1c1ccsc1 (stereo not given) | 6.292 | 2.513
CSc1ccc(C(=O)C2CCCN(C(=O)CCn3cncn3)C2)cc1 (stereo not given) | 17.76 | 5.576
COCC1CCCN(C(=O)c2cc(Cn3ccc4ccccc43)[nH]n2)C1 (stereo not given) | -1.45 | -4.492
CC(C(=O)NC1CC1)n1nc(-c2cccs2)cc(N)c1=O (stereo not given) | 9.105 | 0.5959
COC(=O)[C@@H]1Cc2ncn(C)c2CN1S(=O)(=O)c1ccc(OC)cc1 | 13.5 & -2.853 | -12.56
COc1cc(Cl)cc(CN2CCCC(N3CCOCC3)C2)c1OC (stereo not given) | 5.154 | 7.763
Cc1cc(C(F)(F)F)n2nc(C3CCN(S(C)(=O)=O)CC3)cc2n1 | 0.188 | 5.697 & -4.322
O=C(c1cc(-n2cccn2)ccn1)N1CCOc2ccc(F)cc21 | 5.967 | -7.334
CCCOCCN1CCN(c2ncnc3[nH]ccc23)CC1 | 16.71 | 4.702
Cc1cnc(C(=O)N2CCN(Cc3csc(C)n3)CC2)cn1 | 20.1 | 10.67
[H][C@@]12CCCO[C@]1([H])[C@@H](NC(=O)c1nccn1C)CN2Cc1ccc(C)o1 | -73.84 | -27.42
CNC(=O)[C@@H]1C[C@H](N)CN1S(=O)(=O)c1cc(Cl)cc(Cl)c1O | -23.87 | -9.253
c1cnn(CC2CN(Cc3csc(C4CCCCC4)n3)CCO2)c1 (stereo not given) | 11.15 | 9.63
CCc1nc(C2CCCN2C(=O)c2ccc3c(c2)nnn3C)no1 (stereo not given) | -5.722 | -2.632
CC(C)c1cc2c(s1)NC(c1ccccc1)NC2=O (stereo not given) | 14.04 | 3.282
CCC(=O)Nc1ccc(OCC(=O)N(C)C(C)c2ccon2)cc1 (stereo not given) | -8.712 | 4.858
NC(=O)C1CCCN(C(=O)c2ccn(-c3ccc(F)cc3)n2)C1 (stereo not given) | -2.316 & -14.74 | 1.496
[H][C@@]12C[C@H](C(=O)Nc3cccnc3)[C@@]([H])(CN(S(=O)(=O)CCC)C1)O2 | 3.302 | 18.25 & -6.804
CC(C)c1noc(CNc2cccc(-c3nnnn3C)c2)n1 | -11.4 | 4.362
COc1ccccc1N1CCC(CNCc2cccc(OC)c2OC)C1 (stereo not given) | 54.67 | 17.84
COc1cccc(NC(=O)Cc2c(C)nc3c(c2C)c(=O)[nH]n3C)c1 | 13.31 | -9.66
CC(C(=O)NCCOc1ccccc1)n1cncn1 (stereo not given) | -20.33 | -10.88
[H][C@@]12CCCO[C@]1([H])[C@H](NC(=O)C1CC1)CN2Cc1ccc2c(c1)OCO2 | -8.71 | 5.854
O=C(O)c1ccccc1-c1ccc(CN2CCC(CO)C2)cc1 (stereo not given) | 10.65 | -3.528
COc1ccc(CN(Cc2c[nH]cn2)CC2CCCO2)c(OC)c1.O=C(O)CC(O)(CC(=O)O)C(=O)O (stereo not given) | 4.058 | -4.489
Cc1nc(C(C)C)sc1C(=O)N(C)CCCc1cnn(C)c1 | -19.13 | -17.62
CC(C)c1cc(CN(C)C(=O)CN2CCC(C(N)=O)CC2)no1 | 12.63 | -12.59
CCN1CCCC1CNC(=O)c1cc(COc2cccc(F)c2)[nH]n1 (stereo not given) | 3.162 | 0.172
CC(C)Oc1ccc(CNC(=O)C2CCS(=O)(=O)C2)cn1 (stereo not given) | -40.29 | -8.315 & 9.045
CS(=O)(=O)NCCNC(=O)c1ccc(OCc2ccccc2)nc1 | -29.41 & -5.807 | -20.35
O=C(NCC1CC1)c1ccc(NC(=O)c2ccco2)cc1 | 7.354 | -9.727 & -1.399
CCN1CCc2[nH]cnc2C12CCN(c1ncc(C(=O)O)cc1Cl)CC2 | -17.65 | -28.27
[H][C@@]12CCCN1CCCN(Cc1cc3cccc(C)c3[nH]c1=O)C2 | 8.012 & 14.7 | 14.13
COc1ccc(CCC(=O)NCCN2CCC(c3cccs3)CC2)cc1 | -10.1 | 5.599

For reference, 5 entries once more:

{"smiles": "CC(C(=O)NC1CC1)n1nc(-c2cccs2)cc(N)c1=O", "stereo": "stereo not given", "Mtb glucose medium": 9.105, "Mtb cholesterol medium": 0.5959}
{"smiles": "CS(=O)(=O)NCCNC(=O)c1ccc(OCc2ccccc2)nc1", "Mtb glucose medium": "-29.41 & -5.807", "Mtb cholesterol medium": -20.35}
{"smiles": "CCC(=O)N1CCCC1c1ccsc1", "stereo": "stereo not given", "Mtb glucose medium": 6.292, "Mtb cholesterol medium": 2.513}
{"smiles": "[H][C@@]12CCCN1CCCN(Cc1cc3cccc(C)c3[nH]c1=O)C2", "Mtb glucose medium": "8.012 & 14.7", "Mtb cholesterol medium": 14.13}
{"smiles": "CN1CCN(C(=O)C2CCN(c3cccnn3)C2)CC1", "stereo": "stereo not given", "Mtb glucose medium": -12.48, "Mtb cholesterol medium": -5.624}